Data as given in PubChem BioAssay AID1224828 (NIAID, 2016)
Here is one part, drawn at random, of about 17,000 reagents. Over the whole deposit, 762 (4.5%) got an active call. 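Active calls include both raised and lowered p65 entry, mostly lowered; wells with fewer than 50 cells lack a z-score.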 The raw values are shown without normalisation.

Aim: 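Find genes required for NF-kappaB p65 moving into the nucleus after LPS in mouse macrophages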 (primary screen)
Cell system: mouse RAW264.7 G9 macrophage reporter cells (GFP-p65, Tnf promoter-mCherry)
Knock-down reagent: siRNA pool against mouse genes, 100 nM
Timing: 2 days siRNA transfection, then 40 min LPS before fixation
Treatment: LPS (Salmonella minnesota R595) at 10 ng/ml
Read-out: 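Microscopy ratio of nuclear to perinuclear-ring GFP-p65 signal, scaled to the plate median; gene score is the average of two replicate robust z-scores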
Scale: p65 translocation robust z-score: higher = more nuclear NF-kappaB p65 after LPS than the plate median; nuclear/cytoplasmic p65 ratio: higher = more nuclear NF-kappaB p65
Call rule: 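Called active when z exceeds 3.3 or falls under -1.56 (median of Tlr4 controls), giving activity score of at least 50; no calls for control wells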
Meaning of the calls: active = hit (p65 shift raised or lowered); inactive = no clear change

{"gene knocked down": "Ppfibp2", "p65 translocation robust z-score": -0.5, "nuclear/cytoplasmic p65 ratio, rep 1": 1.27, "nuclear/cytoplasmic p65 ratio, rep 2": 1.2, "low cell count flag": "enough cells to score", "call": "inactive"}
{"gene knocked down": "Ankrd16", "p65 translocation robust z-score": -0.69, "nuclear/cytoplasmic p65 ratio, rep 1": 1.35, "nuclear/cytoplasmic p65 ratio, rep 2": 1.57, "low cell count flag": "enough cells to score", "call": "inactive"}
{"gene knocked down": "Cdc14a", "p65 translocation robust z-score": 0.19, "nuclear/cytoplasmic p65 ratio, rep 1": 1.46, "nuclear/cytoplasmic p65 ratio, rep 2": 1.43, "low cell count flag": "enough cells to score", "call": "inactive"}
{"gene knocked down": "Gclm", "p65 translocation robust z-score": -3.05, "nuclear/cytoplasmic p65 ratio, rep 1": 1.1, "nuclear/cytoplasmic p65 ratio, rep 2": 1.09, "low cell count flag": "enough cells to score", "call": "active"}
{"gene knocked down": "Iffo1", "p65 translocation robust z-score": -0.36, "nuclear/cytoplasmic p65 ratio, rep 1": 1.35, "nuclear/cytoplasmic p65 ratio, rep 2": 1.46, "low cell count flag": "enough cells to score", "call": "inactive"}
{"gene knocked down": "Gmds", "p65 translocation robust z-score": 2.11, "nuclear/cytoplasmic p65 ratio, rep 1": 2.05, "nuclear/cytoplasmic p65 ratio, rep 2": 1.77, "low cell count flag": "enough cells to score", "call": "inactive"}
{"gene knocked down": "Gnpda1", "p65 translocation robust z-score": 0.01, "nuclear/cytoplasmic p65 ratio, rep 1": 1.39, "nuclear/cytoplasmic p65 ratio, rep 2": 1.43, "low cell count flag": "enough cells to score", "call": "inactive"}
{"gene knocked down": "Nedd8", "p65 translocation robust z-score": -0.81, "nuclear/cytoplasmic p65 ratio, rep 1": 1.25, "nuclear/cytoplasmic p65 ratio, rep 2": 1.32, "low cell count flag": "enough cells to score", "call": "inactive"}
{"gene knocked down": "Kif12", "p65 translocation robust z-score": -0.58, "nuclear/cytoplasmic p65 ratio, rep 1": 1.46, "nuclear/cytoplasmic p65 ratio, rep 2": 1.25, "low cell count flag": "enough cells to score", "call": "inactive"}
{"gene knocked down": "Or10ak13", "nuclear/cytoplasmic p65 ratio, rep 1": 1.82, "nuclear/cytoplasmic p65 ratio, rep 2": 1.48, "low cell count flag": "fewer than 50 cells per well; well left out of scoring", "call": "inactive"}
{"gene knocked down": "Mgmt", "p65 translocation robust z-score": -0.64, "nuclear/cytoplasmic p65 ratio, rep 1": 1.54, "nuclear/cytoplasmic p65 ratio, rep 2": 1.52, "low cell count flag": "enough cells to score", "call": "inactive"}
{"gene knocked down": "Iqgap1", "p65 translocation robust z-score": 1.31, "nuclear/cytoplasmic p65 ratio, rep 1": 1.61, "nuclear/cytoplasmic p65 ratio, rep 2": 1.59, "low cell count flag": "enough cells to score", "call": "inactive"}
{"gene knocked down": "C230012O17Rik", "p65 translocation robust z-score": -0.1, "nuclear/cytoplasmic p65 ratio, rep 1": 1.57, "nuclear/cytoplasmic p65 ratio, rep 2": 1.77, "low cell count flag": "enough cells to score", "call": "inactive"}
{"gene knocked down": "Uck1", "p65 translocation robust z-score": -2.32, "nuclear/cytoplasmic p65 ratio, rep 1": 1.36, "nuclear/cytoplasmic p65 ratio, rep 2": 1.06, "low cell count flag": "enough cells to score", "call": "active"}

Individual results from the entries so far.
Entry for Mgmt in “low cell count flag”: enough cells to score
Value of Nedd8 under “low cell count flag”: enough cells to score
